# Results: publication PMC4770304
# Protein sequences, listed by entry. Tags and fused reporters are not part of them. Lines headed by an entry give the natural chain unless they say otherwise; changes in a name come on top.
# UniProt Q27J81: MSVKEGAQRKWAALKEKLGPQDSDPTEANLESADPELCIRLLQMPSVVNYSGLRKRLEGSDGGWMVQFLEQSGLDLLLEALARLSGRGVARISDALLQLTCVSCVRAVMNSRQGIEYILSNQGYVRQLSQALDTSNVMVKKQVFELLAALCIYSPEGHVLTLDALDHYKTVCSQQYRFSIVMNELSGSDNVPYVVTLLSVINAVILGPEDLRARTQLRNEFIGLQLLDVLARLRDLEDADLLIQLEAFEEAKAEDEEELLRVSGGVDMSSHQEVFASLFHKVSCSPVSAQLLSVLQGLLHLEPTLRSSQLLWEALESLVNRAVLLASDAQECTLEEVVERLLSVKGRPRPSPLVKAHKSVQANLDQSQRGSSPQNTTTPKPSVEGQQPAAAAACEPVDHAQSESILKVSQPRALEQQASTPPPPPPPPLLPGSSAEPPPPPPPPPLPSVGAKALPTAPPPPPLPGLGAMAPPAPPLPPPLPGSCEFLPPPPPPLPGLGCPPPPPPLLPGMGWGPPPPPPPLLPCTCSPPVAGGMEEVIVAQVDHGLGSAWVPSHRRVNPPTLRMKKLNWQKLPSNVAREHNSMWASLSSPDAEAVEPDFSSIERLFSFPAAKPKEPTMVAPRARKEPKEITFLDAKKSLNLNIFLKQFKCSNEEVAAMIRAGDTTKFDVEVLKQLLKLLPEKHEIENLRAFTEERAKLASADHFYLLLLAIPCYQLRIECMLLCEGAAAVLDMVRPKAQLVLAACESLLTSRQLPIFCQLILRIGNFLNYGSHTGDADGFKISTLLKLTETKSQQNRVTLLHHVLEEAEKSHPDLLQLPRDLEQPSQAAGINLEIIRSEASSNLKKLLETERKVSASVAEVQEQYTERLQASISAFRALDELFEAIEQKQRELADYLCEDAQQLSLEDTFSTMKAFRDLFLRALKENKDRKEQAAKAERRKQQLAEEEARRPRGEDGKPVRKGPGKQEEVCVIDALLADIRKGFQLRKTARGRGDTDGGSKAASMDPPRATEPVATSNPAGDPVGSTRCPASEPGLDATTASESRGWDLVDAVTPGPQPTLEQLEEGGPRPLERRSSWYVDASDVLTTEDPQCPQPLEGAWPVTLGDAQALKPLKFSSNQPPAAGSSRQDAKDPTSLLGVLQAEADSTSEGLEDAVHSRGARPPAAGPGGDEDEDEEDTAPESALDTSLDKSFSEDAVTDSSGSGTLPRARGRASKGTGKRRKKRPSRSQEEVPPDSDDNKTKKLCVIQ
# UniProt P60953: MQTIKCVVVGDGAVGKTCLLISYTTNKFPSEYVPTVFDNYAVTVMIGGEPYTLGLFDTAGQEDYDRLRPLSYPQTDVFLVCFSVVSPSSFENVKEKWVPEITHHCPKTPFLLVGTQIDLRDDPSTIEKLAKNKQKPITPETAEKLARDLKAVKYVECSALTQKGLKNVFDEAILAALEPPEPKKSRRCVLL
# These are yes or no findings as the source states them, for the method shown. Binding seen in cells or lysates may run through a third protein. A result given as binding can be weak or reduced; the word gives no strength.
# Biological target: GFP–INF2–WT expressed in HEK293T cells (UniProt Q27J81)
# Assay: co-IP; HEK293T transfected with GFP–INF2 (WT or mutant), co-transfected with HACdc42QL or a control plasmid; GFP-Trap agarose, 1 h at 4°C (10 mM Tris pH 7.5, 150 mM NaCl, 0.5 mM EDTA, 2% NP40, 10% glycerol); blots
substance,measurement,value
HACdc42QL (active form of cdc42) (from UniProt P60953),binding,binds
